Source: paper PMC4492089, “FOXM1 binds directly to non-consensus sequences in the human genome”
Substitutions are numbered along the chain they refer to. These are yes or no findings as the source states them, for the method shown. Binding seen in cells or lysates may run through a third protein. Some binding calls cover weakened binding; strength is not graded here. Tags and fused reporters may be left off the sequences shown.

Sequences of proteins named here, by UniProt entry; tags and fusion partners are left off.
UniProt P10244: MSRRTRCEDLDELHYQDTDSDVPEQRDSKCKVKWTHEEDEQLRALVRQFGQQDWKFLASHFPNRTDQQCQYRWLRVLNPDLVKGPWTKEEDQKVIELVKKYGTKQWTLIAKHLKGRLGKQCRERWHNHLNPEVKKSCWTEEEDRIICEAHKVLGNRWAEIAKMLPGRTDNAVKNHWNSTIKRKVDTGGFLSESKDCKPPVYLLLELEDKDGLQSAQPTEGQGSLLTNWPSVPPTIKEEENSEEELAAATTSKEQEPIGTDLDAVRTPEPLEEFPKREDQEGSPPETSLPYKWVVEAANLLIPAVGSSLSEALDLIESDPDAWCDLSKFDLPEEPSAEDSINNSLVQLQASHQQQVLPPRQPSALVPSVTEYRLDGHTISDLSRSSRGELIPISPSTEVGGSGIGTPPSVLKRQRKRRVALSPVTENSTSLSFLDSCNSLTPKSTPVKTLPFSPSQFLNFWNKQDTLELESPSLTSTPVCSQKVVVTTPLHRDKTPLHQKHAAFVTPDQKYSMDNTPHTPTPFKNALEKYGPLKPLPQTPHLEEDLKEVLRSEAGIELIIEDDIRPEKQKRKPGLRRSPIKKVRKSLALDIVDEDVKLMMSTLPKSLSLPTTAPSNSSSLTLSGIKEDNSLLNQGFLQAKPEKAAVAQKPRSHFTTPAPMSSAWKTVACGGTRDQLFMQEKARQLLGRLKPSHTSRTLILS
UniProt Q5TKA1: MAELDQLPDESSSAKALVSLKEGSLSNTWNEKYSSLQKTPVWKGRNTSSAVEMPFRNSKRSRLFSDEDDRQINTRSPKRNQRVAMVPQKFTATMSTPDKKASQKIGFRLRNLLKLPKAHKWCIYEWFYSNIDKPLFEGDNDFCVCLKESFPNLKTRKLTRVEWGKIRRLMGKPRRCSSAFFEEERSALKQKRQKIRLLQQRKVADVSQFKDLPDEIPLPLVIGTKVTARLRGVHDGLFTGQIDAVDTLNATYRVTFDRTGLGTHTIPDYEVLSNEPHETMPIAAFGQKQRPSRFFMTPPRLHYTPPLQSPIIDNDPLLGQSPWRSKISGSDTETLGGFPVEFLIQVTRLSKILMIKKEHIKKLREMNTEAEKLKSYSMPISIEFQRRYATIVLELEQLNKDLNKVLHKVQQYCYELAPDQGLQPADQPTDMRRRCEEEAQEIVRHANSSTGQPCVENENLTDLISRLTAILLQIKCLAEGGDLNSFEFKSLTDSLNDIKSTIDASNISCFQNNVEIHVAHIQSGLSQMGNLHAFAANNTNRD
UniProt Q00403: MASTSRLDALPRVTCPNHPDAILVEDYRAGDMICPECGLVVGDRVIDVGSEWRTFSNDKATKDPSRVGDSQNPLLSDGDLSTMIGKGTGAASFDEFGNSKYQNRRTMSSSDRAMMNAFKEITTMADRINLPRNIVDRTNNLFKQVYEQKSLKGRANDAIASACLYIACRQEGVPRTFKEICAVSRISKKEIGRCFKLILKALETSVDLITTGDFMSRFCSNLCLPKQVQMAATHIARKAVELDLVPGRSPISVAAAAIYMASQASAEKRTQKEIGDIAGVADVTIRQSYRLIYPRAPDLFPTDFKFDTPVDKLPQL

How the values were obtained:
Experiment in all cases: co-IP; nuclear extracts of HEK293 cells expressing WT, H287A or R286A GFP-FOXM1 or GFP only (Active Motif nuclear co-IP kit, enzymatic shearing, low IP buffer); pull-down with a GFP antibody by the legend, with FOXM1 antibody sc-502 by the methods; protein A magnetic beads; western blots for B-Myb, LIN9 and TF2B
[1] = biological target: T1, GFP-FOXM1B wild type (human) (UniProt Q08050)
T1 sequence: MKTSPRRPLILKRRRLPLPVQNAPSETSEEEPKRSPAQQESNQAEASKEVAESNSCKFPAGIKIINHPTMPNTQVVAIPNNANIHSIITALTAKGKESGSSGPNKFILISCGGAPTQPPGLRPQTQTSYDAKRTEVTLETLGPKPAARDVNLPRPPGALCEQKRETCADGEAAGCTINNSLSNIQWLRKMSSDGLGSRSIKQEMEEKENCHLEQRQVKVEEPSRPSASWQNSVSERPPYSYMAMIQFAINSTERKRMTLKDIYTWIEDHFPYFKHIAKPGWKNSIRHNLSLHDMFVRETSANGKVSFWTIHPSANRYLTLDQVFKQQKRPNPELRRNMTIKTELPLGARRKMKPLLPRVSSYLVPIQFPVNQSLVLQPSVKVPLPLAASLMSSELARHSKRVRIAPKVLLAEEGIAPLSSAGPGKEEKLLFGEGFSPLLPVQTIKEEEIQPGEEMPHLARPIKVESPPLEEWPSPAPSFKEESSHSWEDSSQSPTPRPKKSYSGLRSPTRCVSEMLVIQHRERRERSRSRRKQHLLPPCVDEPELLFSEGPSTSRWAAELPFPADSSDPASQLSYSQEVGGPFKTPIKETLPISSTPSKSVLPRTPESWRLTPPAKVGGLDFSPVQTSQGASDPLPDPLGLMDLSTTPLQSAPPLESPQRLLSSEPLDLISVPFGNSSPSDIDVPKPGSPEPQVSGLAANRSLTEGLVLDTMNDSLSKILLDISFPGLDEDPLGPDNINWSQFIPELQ

[2] = biological target: T2, GFP-FOXM1B H287A (human) (UniProt Q08050)
T2 sequence: T1 sequence with H287A

[3] = biological target: T3, GFP-FOXM1B R286A (human) (UniProt Q08050)
T3 sequence: T1 sequence with R286A

Row | binding [1] | binding [2] | binding [3] | Substance
1 | binds | binds | binds | B-MYB (from UniProt P10244 1-700)
2 | binds | binds | binds | LIN9 (from UniProt Q5TKA1 1-542)
3 | binds | – | binds | general transcription factor TF2B (from UniProt Q00403 1-316)
